Measurements as given in US20110038885A1 (priority 2007, published 2011).
Bridge positions count the residues as written; N and C are the ends. Square brackets hold non-standard residues; d marks the D form. * marks the point of attachment. 1Naphthoyl = O=C(c1cccc2ccccc12)*; 2Naphthoyl = O=C(c1ccc2ccccc2c1)*; Ac6c = NC1(C(=O)O)CCCCC1; dDap = NC[C@@H](N)C(=O)O; Dab = NCC[C@H](N)C(=O)O

Experiment: general procedure: Fmoc solid-phase peptide synthesis; Rink Amide MBHA resin (0.58 mmol/g or 0.78 mmol/g); Wang resin for C-terminal acids; DIC/HOBt
Conditions: whole synthesis, analytical HPLC, scale of the general procedure 0.090 mmol

Row | Substance | purity (crude or final not stated) [%]
1 | 1Naphthoyl-CKWIQC-NH2 (disulfide 1-6; SMILES CC[C@H](C)[C@@H]1NC(=O)[C@H](Cc2c[nH]c3ccccc23)NC(=O)[C@H](CCCCN)NC(=O)[C@@H](NC(=O)c2cccc3ccccc23)CSSC[C@@H](C(N)=O)NC(=O)[C@H](CCC(N)=O)NC1=O) | 99
2 | 2Naphthoyl-CKWIQC-NH2 (disulfide 1-6; SMILES CC[C@H](C)[C@@H]1NC(=O)[C@H](Cc2c[nH]c3ccccc23)NC(=O)[C@H](CCCCN)NC(=O)[C@@H](NC(=O)c2ccc3ccccc3c2)CSSC[C@@H](C(N)=O)NC(=O)[C@H](CCC(N)=O)NC1=O) | 95
3 | Ac-CKQKWIQC[dP][dD][dL]-NH2 (disulfide 1-8; SMILES CC[C@H](C)[C@@H]1NC(=O)[C@H](Cc2c[nH]c3ccccc23)NC(=O)[C@H](CCCCN)NC(=O)[C@H](CCC(N)=O)NC(=O)[C@H](CCCCN)NC(=O)[C@@H](NC(C)=O)CSSC[C@@H](C(=O)N2CCC[C@@H]2C(=O)N[C@H](CC(=O)O)C(=O)N[C@H](CC(C)C)C(N)=O)NC(=O)[C@H](CCC(N)=O)NC1=O) | 82.1
4 | Ac-CKWIQC-NH2 (disulfide 1-6; SMILES CC[C@H](C)[C@@H]1NC(=O)[C@H](Cc2c[nH]c3ccccc23)NC(=O)[C@H](CCCCN)NC(=O)[C@@H](NC(C)=O)CSSC[C@@H](C(N)=O)NC(=O)[C@H](CCC(N)=O)NC1=O) | 94.3
5 | Ac-CKWIQ[dC]-NH2 (disulfide 1-6; SMILES CC[C@H](C)[C@@H]1NC(=O)[C@H](Cc2c[nH]c3ccccc23)NC(=O)[C@H](CCCCN)NC(=O)[C@@H](NC(C)=O)CSSC[C@H](C(N)=O)NC(=O)[C@H](CCC(N)=O)NC1=O) | 91
6 | Ac-CKWI[dQ]C-NH2 (disulfide 1-6; SMILES CC[C@H](C)[C@@H]1NC(=O)[C@H](Cc2c[nH]c3ccccc23)NC(=O)[C@H](CCCCN)NC(=O)[C@@H](NC(C)=O)CSSC[C@@H](C(N)=O)NC(=O)[C@@H](CCC(N)=O)NC1=O) | 99
7 | Ac-CKW[dI]QC-NH2 (disulfide 1-6; SMILES CC[C@@H](C)[C@H]1NC(=O)[C@H](Cc2c[nH]c3ccccc23)NC(=O)[C@H](CCCCN)NC(=O)[C@@H](NC(C)=O)CSSC[C@@H](C(N)=O)NC(=O)[C@H](CCC(N)=O)NC1=O) | 99
8 | Ac-CK[dW]IQC-NH2 (disulfide 1-6; SMILES CC[C@H](C)[C@@H]1NC(=O)[C@@H](Cc2c[nH]c3ccccc23)NC(=O)[C@H](CCCCN)NC(=O)[C@@H](NC(C)=O)CSSC[C@@H](C(N)=O)NC(=O)[C@H](CCC(N)=O)NC1=O) | 97
9 | Ac-CLDPKQKWIQC-NH2 (disulfide 1-11; SMILES CC[C@H](C)[C@@H]1NC(=O)[C@H](Cc2c[nH]c3ccccc23)NC(=O)[C@H](CCCCN)NC(=O)[C@H](CCC(N)=O)NC(=O)[C@H](CCCCN)NC(=O)[C@@H]2CCCN2C(=O)[C@H](CC(=O)O)NC(=O)[C@H](CC(C)C)NC(=O)[C@@H](NC(C)=O)CSSC[C@@H](C(N)=O)NC(=O)[C@H](CCC(N)=O)NC1=O) | 99
10 | Ac-CLDPKQKWIQC[Dab]-NH2 (disulfide 1-11; SMILES CC[C@H](C)[C@@H]1NC(=O)[C@H](Cc2c[nH]c3ccccc23)NC(=O)[C@H](CCCCN)NC(=O)[C@H](CCC(N)=O)NC(=O)[C@H](CCCCN)NC(=O)[C@@H]2CCCN2C(=O)[C@H](CC(=O)O)NC(=O)[C@H](CC(C)C)NC(=O)[C@@H](NC(C)=O)CSSC[C@@H](C(=O)N[C@@H](CCN)C(N)=O)NC(=O)[C@H](CCC(N)=O)NC1=O) | 98
11 | Ac-CLDPKQKWIQC[dDap]-NH2 (disulfide 1-11; SMILES CC[C@H](C)[C@@H]1NC(=O)[C@H](Cc2c[nH]c3ccccc23)NC(=O)[C@H](CCCCN)NC(=O)[C@H](CCC(N)=O)NC(=O)[C@H](CCCCN)NC(=O)[C@@H]2CCCN2C(=O)[C@H](CC(=O)O)NC(=O)[C@H](CC(C)C)NC(=O)[C@@H](NC(C)=O)CSSC[C@@H](C(=O)N[C@H](CN)C(N)=O)NC(=O)[C@H](CCC(N)=O)NC1=O) | 99
12 | Ac-CLDPKQKWI[dQ]C-NH2 (disulfide 1-11; SMILES CC[C@H](C)[C@@H]1NC(=O)[C@H](Cc2c[nH]c3ccccc23)NC(=O)[C@H](CCCCN)NC(=O)[C@H](CCC(N)=O)NC(=O)[C@H](CCCCN)NC(=O)[C@@H]2CCCN2C(=O)[C@H](CC(=O)O)NC(=O)[C@H](CC(C)C)NC(=O)[C@@H](NC(C)=O)CSSC[C@@H](C(N)=O)NC(=O)[C@@H](CCC(N)=O)NC1=O) | 86.5
13 | Ac-CLDPKQKW[Ac6c]QC-NH2 (disulfide 1-11; SMILES CC(=O)N[C@H]1CSSC[C@@H](C(N)=O)NC(=O)[C@H](CCC(N)=O)NC(=O)C2(CCCCC2)NC(=O)[C@H](Cc2c[nH]c3ccccc23)NC(=O)[C@H](CCCCN)NC(=O)[C@H](CCC(N)=O)NC(=O)[C@H](CCCCN)NC(=O)[C@@H]2CCCN2C(=O)[C@H](CC(=O)O)NC(=O)[C@H](CC(C)C)NC1=O) | 95.2
14 | Ac-CLDPKQKW[dI]QC-NH2 (disulfide 1-11; SMILES CC[C@@H](C)[C@H]1NC(=O)[C@H](Cc2c[nH]c3ccccc23)NC(=O)[C@H](CCCCN)NC(=O)[C@H](CCC(N)=O)NC(=O)[C@H](CCCCN)NC(=O)[C@@H]2CCCN2C(=O)[C@H](CC(=O)O)NC(=O)[C@H](CC(C)C)NC(=O)[C@@H](NC(C)=O)CSSC[C@@H](C(N)=O)NC(=O)[C@H](CCC(N)=O)NC1=O) | 94.3
15 | Ac-CLDPKQK[dW]IQC-NH2 (disulfide 1-11; SMILES CC[C@H](C)[C@@H]1NC(=O)[C@@H](Cc2c[nH]c3ccccc23)NC(=O)[C@H](CCCCN)NC(=O)[C@H](CCC(N)=O)NC(=O)[C@H](CCCCN)NC(=O)[C@@H]2CCCN2C(=O)[C@H](CC(=O)O)NC(=O)[C@H](CC(C)C)NC(=O)[C@@H](NC(C)=O)CSSC[C@@H](C(N)=O)NC(=O)[C@H](CCC(N)=O)NC1=O) | 88.2
16 | Ac-CLDPKQ[dK]WIQC-NH2 (disulfide 1-11; SMILES CC[C@H](C)[C@@H]1NC(=O)[C@H](Cc2c[nH]c3ccccc23)NC(=O)[C@@H](CCCCN)NC(=O)[C@H](CCC(N)=O)NC(=O)[C@H](CCCCN)NC(=O)[C@@H]2CCCN2C(=O)[C@H](CC(=O)O)NC(=O)[C@H](CC(C)C)NC(=O)[C@@H](NC(C)=O)CSSC[C@@H](C(N)=O)NC(=O)[C@H](CCC(N)=O)NC1=O) | 89.6
17 | Ac-CLDPK[dQ]KWIQC-NH2 (disulfide 1-11; SMILES CC[C@H](C)[C@@H]1NC(=O)[C@H](Cc2c[nH]c3ccccc23)NC(=O)[C@H](CCCCN)NC(=O)[C@@H](CCC(N)=O)NC(=O)[C@H](CCCCN)NC(=O)[C@@H]2CCCN2C(=O)[C@H](CC(=O)O)NC(=O)[C@H](CC(C)C)NC(=O)[C@@H](NC(C)=O)CSSC[C@@H](C(N)=O)NC(=O)[C@H](CCC(N)=O)NC1=O) | 90
18 | Ac-CLDP[dK]QKWIQC-NH2 (disulfide 1-11; SMILES CC[C@H](C)[C@@H]1NC(=O)[C@H](Cc2c[nH]c3ccccc23)NC(=O)[C@H](CCCCN)NC(=O)[C@H](CCC(N)=O)NC(=O)[C@@H](CCCCN)NC(=O)[C@@H]2CCCN2C(=O)[C@H](CC(=O)O)NC(=O)[C@H](CC(C)C)NC(=O)[C@@H](NC(C)=O)CSSC[C@@H](C(N)=O)NC(=O)[C@H](CCC(N)=O)NC1=O) | 79.1
